Laboratory results: PMC6198467
No constants are given. Whether binding was seen depends on the method and setting. Binding seen in cells or lysates may run through a third protein. Some binding calls cover weakened binding; strength is not graded here. For part of these data: Sequences can lack the tags named with a protein. Each block holds one binder with its values, some of them ahead of it.

Tests used:
Flag-tagged Neurog2 = biological target: T1, Flag-tagged Neurog2 (UniProt P70447); test: co-IP; NIH-3T3 co-transfected with Neurog1 and FLAG-tagged Neurog2; 400 ug lysate in NET2 buffer (0.05% NP40, 150 mM NaCl, 50 mM Tris-Cl pH 7.4) precipitated with anti-FLAG M2 beads overnight at 4 C; half the samples with DNaseI (2 U/ml); blot with anti-Neurog1
T1 sequence: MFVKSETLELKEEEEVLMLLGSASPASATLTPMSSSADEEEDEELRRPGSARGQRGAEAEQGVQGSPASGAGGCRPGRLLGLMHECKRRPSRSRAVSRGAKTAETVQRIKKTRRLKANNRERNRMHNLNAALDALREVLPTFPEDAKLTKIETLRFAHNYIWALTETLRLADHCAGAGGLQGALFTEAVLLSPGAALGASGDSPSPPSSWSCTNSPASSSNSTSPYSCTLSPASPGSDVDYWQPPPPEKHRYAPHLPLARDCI

Neurog2 = biological target: T2, Neurog2 (UniProt P70447); test: proximity ligation; NIH-3T3 transfected with pCIG2-Neurog1 and pCIG2-Neurog2, fixed 48 h after transfection; Duolink PLA with anti-Neurog1 and anti-Neurog2; single antibodies as controls
T2 sequence: T1 sequence

[1] = biological target: T3, Neurog2 (endogenous, mouse embryonic cortex) (mouse (endogenous in embryonic cortex)) (UniProt P70447); test: proximity ligation; dissociated E12.5 mouse cortical cells, fixed with 4% PFA; Duolink PLA with antibodies to the endogenous proteins; no-antibody negative control
T3 sequence: T1 sequence

- binding (Flag-tagged Neurog2): binds
- binding (Neurog2): binds
B1: Neurog1 (protein, UniProt P70660 1-244)
chain: MPAPLETCISDLDCSSSNSSSDLSSFLTDEEDCARLQPLASTSGLSVPARRSAPALSGASNVPGAQDEEQERRRRRGRARVRSEALLHSLRRSRRVKANDRERNRMHNLNAALDALRSVLPSFPDDTKLTKIETLRFAYNYIWALAETLRLADQGLPGGSARERLLPPQCVPCLPGPPSPASDTESWGSGAAASPCATVASPLSDPSSPSASEDFTYGPGDPLFSFPGLPKDLLHTTPCFIPYH

- binding [1]: binds
B2: Neurog1 (endogenous, mouse embryonic cortex) (protein, UniProt P70660 1-244)
chain: B1 chain
